Reference: PubChem BioAssay AID1347081 (National Center for Advancing Translational Sciences (NCATS), 2019)
Only results without a clear call are listed here; the source files them as inconclusive. The call rests on the fitted dose curve.

Assay: qHTS for Inhibitors of the Functional Ribonucleoprotein Complex (vRNP) of Lassa (LASV) Arenavirus: Viability assay - alamar blue signal for LASV Confirmatory Screen
Details: LASV vRNP counter-screen cells

## CCC(=O)N(c1ccccc1)C1(COC)CCN(CCc2cccs2)CC1
  Potency: inconclusive: 62.7 µM
